Measurements from “University of Dundee, Small-Polar-MMV Screening Library” (2021), ChEMBL document CHEMBL3988442.

Amino acid sequences for entries named in this document (tags omitted). Residues count along the entry.
UniProt P9WNZ1, whole entry: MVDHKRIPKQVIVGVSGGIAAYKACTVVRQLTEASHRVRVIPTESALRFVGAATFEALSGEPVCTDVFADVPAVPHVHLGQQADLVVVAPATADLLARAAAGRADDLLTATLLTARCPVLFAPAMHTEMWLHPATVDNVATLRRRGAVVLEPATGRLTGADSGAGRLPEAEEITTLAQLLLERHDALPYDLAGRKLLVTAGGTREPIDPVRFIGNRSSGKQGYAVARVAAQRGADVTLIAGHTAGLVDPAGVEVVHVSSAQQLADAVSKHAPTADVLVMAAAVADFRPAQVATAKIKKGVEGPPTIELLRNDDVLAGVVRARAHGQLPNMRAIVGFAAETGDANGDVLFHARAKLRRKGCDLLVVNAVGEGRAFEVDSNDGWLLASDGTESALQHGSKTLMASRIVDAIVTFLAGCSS
UniProt Q8IDJ8, 1-583: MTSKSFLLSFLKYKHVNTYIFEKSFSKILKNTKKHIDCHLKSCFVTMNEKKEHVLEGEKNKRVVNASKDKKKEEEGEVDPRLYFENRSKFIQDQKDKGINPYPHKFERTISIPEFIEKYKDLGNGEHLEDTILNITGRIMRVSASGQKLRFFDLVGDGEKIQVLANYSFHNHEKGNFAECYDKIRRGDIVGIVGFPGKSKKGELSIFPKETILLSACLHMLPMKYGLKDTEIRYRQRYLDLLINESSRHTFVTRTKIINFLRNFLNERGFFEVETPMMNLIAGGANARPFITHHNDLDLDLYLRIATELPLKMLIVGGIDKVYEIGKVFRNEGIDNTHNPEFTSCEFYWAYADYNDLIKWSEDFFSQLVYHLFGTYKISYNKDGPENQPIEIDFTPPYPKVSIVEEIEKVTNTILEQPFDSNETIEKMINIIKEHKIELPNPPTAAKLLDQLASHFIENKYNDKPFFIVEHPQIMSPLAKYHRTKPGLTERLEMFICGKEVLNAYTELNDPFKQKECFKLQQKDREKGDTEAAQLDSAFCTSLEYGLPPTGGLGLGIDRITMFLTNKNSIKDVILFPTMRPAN
UniProt P9WFT3, whole entry: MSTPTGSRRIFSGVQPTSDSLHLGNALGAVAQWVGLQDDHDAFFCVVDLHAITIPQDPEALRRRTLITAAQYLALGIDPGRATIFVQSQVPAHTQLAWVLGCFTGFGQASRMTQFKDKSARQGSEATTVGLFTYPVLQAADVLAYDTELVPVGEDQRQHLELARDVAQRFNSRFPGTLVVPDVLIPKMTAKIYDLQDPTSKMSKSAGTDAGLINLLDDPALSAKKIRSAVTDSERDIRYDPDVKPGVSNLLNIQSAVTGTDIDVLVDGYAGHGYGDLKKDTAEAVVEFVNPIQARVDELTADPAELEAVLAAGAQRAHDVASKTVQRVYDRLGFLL
UniProt I6X8D2, whole entry: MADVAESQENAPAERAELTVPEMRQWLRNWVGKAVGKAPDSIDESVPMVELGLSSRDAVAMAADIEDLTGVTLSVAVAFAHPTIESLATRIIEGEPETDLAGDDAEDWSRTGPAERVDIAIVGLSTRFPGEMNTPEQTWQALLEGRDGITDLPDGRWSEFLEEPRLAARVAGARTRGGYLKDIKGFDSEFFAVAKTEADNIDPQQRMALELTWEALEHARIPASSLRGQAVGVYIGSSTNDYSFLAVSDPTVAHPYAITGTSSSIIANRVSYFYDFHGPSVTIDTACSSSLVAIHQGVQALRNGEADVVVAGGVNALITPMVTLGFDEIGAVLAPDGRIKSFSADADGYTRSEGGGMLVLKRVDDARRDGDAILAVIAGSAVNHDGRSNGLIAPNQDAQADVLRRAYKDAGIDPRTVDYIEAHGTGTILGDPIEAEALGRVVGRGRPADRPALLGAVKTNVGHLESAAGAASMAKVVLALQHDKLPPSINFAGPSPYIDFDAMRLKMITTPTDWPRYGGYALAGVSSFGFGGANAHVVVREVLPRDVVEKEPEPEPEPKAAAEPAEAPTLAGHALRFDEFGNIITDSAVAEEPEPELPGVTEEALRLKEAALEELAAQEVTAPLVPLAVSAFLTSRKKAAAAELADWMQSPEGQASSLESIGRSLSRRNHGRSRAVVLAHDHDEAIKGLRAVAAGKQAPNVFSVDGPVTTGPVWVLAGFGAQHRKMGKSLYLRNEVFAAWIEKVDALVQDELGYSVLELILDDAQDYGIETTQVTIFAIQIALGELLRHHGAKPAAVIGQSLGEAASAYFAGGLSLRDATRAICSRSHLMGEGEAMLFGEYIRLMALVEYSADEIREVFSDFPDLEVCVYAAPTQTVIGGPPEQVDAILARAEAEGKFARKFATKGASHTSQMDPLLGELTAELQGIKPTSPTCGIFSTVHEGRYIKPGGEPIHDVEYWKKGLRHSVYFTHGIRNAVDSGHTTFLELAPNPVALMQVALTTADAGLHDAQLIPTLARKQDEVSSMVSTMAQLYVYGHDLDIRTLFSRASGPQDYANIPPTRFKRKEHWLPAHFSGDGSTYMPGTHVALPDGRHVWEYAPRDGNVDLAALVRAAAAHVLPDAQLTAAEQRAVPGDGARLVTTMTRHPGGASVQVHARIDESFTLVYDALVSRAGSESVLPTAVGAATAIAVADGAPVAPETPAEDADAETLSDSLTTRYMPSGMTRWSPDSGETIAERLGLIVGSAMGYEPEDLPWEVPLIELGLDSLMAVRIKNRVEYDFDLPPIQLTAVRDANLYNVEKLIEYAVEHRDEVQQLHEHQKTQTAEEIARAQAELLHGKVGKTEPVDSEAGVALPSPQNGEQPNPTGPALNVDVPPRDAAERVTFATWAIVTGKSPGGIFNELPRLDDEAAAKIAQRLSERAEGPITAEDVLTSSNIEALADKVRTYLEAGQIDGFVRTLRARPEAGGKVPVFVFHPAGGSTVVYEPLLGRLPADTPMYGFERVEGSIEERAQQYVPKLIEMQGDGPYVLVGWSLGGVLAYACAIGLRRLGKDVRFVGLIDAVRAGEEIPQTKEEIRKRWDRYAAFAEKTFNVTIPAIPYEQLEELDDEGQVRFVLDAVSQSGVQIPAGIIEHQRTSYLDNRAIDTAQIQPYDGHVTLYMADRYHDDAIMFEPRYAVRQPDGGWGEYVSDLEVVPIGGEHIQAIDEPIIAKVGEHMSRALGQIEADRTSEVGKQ

CoaBC: 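Coenzyme A biosynthesis protein CoaBC, Mycobacterium tuberculosis (UniProt P9WNZ1). Enzyme assay of CoaBC with a phosphate dye (Biomol Green) read at 650 nm. Concentration: 30 µM. Higher reads as stronger inhibition, judged from the few compounds that gave an IC50. Most strong results did not repeat in a second test. About 67,000 compounds were tested under these conditions; 0.06% (about 40) showed 50% or more at least once.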
PfKRS1: 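Enzyme assay of the cytosolic lysyl-tRNA synthetase in 384-well plates, read by luminescence. Target: Lysine-tRNA ligase, Plasmodium falciparum 3D7 (UniProt Q8IDJ8). Compounds at 30 µM. Direction is inferred from only a few compounds that gave an IC50; most scored high, so higher reads as stronger inhibition. Of about 69,000 compounds tested this way, about 49 (0.071%) reached 50% or more in at least one test.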
Toxoplasma: 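Assay of Toxoplasma gondii numbers, read through their beta-galactosidase reporter with a colour substrate. Compounds at 10 µM. Higher reads as fewer parasites (inferred from which compounds were picked for retests). Of about 67,000 compounds tested this way, about 260 (0.38%) reached 50% or more in at least one test.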
MtTrpRS: 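Tryptophan-tRNA ligase, Mycobacterium tuberculosis (UniProt P9WFT3). Enzyme assay of tryptophanyl-tRNA synthetase; the read-out is not stated. Tested at 10 µM. Higher most likely means stronger inhibition; the record gives no direction and few retests gave an IC50. Size under these conditions: about 65,000 compounds, about 64 of them at 50% or above in at least one test.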
Pks13 thioesterase: 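Polyketide synthase Pks13, Mycobacterium tuberculosis (UniProt I6X8D2). Enzyme assay of the thioesterase domain of polyketide synthase 13; the read-out is not stated. Compounds at 30 µM. Higher reads as stronger inhibition (inferred from which compounds were picked for retests). Size under these conditions: about 67,000 compounds, about 300 of them at 50% or above in at least one test.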

The filed quantity is “Percent Effect” (%). How 0% and 100% were set is not recorded. Most values in the screen are low, and negative values occur. This is an unselected part of the compounds tested. A dash means the value is not listed here; it may have been measured.

structure,CoaBC,PfKRS1,Toxoplasma,MtTrpRS,Pks13 thioesterase
O=C(CCNc1ncccn1)NCc1csc(Br)c1,3.34,0.3299,1.551,6.328,-2.784
CN(CCN1CCCCCC1)Cc1cnc(N)nc1,-10.92,1.902,-4.145,-7.046,-8.595
O=C(O)C(F)(F)F.O=C1CC2(CCN(CCO)C2)CN1c1cccc(F)c1 (stereo unspecified),-,-,7.501,-,-
CCS(=O)(=O)N1CC(=O)N(CCCc2ccccc2)CC(O)C1 (stereo unspecified),1.104,3.185,1.46,-,15.75
CNc1cc(C2CCCNC2)nc(C)n1.Cl.Cl (stereo unspecified),-,-,22.97,-,-
CN(C)C(=O)N1C[C@@H]2COC[C@]2(CNS(C)(=O)=O)C1,5.398,2.433,-,0.959,-28.21
O=C1CC2(CCCNC2)C(=O)N1Cc1cccc(Cl)c1 (stereo unspecified),5.792,3.173,-,8.721,-44.11
CCn1ccc(C(=O)N2CCCC2c2nnc(-c3scnc3C)o2)n1 (stereo unspecified),2.628,0.6829,-14.37,-9.537,0.4292
Cc1nc(CN(C)C2CCCN(c3ccccc3)C2)no1 (stereo unspecified),1.419,0.04715,2.7,1.363,-7.189
CN1CCN(C(=O)c2n[nH]c3c2CN(C2CCOCC2)CC3)CC1.O=C(O)C(F)(F)F.O=C(O)C(F)(F)F.O=C(O)C(F)(F)F,-,-,-18.6,-,-
COC(=O)N1CCCC(C(=O)Nc2nc(C)c(SC)s2)C1 (stereo unspecified),-3.571,0.8904,3.912,2.16,-20.96
Cc1nc(NC(=O)c2c(-n3cnnn3)sc3c2CCCC3)sc1C,-4.253,0.317,-,4.18,1.946
COCCN1CCN(CC2(O)CCCCC2)CC1,5.4,0.5569,10.67,-2.183,-11.48
CN(CCC#N)C(=O)Cc1csc(-c2ncccn2)n1,-3.478,1.164,5.93,-0.867,-32.09
O=C(NCCc1nncn1C1CC1)C1SCCc2ccccc21 (stereo unspecified),0.9569,4.107,4.966,-3.204,-29.94
COc1ccc(CC(=O)Nc2ccc3ncn(C)c(=O)c3c2)cc1,-4.427,3.583,14.18,0.0809,-15.44
[H][C@@]12CCN(S(C)(=O)=O)[C@]1([H])CC[C@H](c1nc(C)no1)O2,-,-,-9.727,-,-
CCS(=O)(=O)N1Cc2cncn2CC(C(=O)NCC2CC2)C1 (stereo unspecified),0.3713,2.125,-7.798,-,-2.355
CN(C)CC1(O)CCN(C(=O)c2ccc(-n3cccn3)cc2Cl)C1 (stereo unspecified),9.13,3.026,2.013,-4.439,-13.37
Cc1nc(C2(O)CCCNCC2)sc1CCOc1ccccc1 (stereo unspecified),10.53,-0.1141,-,-,-1.695
CC(C)n1nc(CN2CCOCC2)c2c1CN(Cc1ccsc1)C2.O=C(O)C(F)(F)F.O=C(O)C(F)(F)F,-,-,2.066,-,-
CCCn1cc2c(C(F)F)cc(SCC(=O)O)nc2n1,0.6135,2.663,-2.15,-,13.53
CCC(NCc1ccccc1)c1ccccc1OCC(=O)NC (stereo unspecified),-0.7968,1.668,12.34,-2.006,-3.754
O=C(c1cc(-c2ccco2)nc2c(Cl)cccc12)N1C[C@H]2CNC[C@H]2C1,-0.9756,5.148,-,2.716,-42.68
CC(NC(=O)N1CCC1)c1ccc(S(N)(=O)=O)cc1 (stereo unspecified),6.415,8.578,20.12,2.041,-18.14
c1nc2c(c(C3CC3)n1)CCN(CC1CCOC1)CC2 (stereo unspecified),8.997,5.111,-,0.959,-33.27
C1CCC(CN2Cc3nnn(CC4CC4)c3C(COCC3CC3)C2)C1 (stereo unspecified),4.878,2.041,-,-,-3.067
CS(=O)(=O)N1CCC2(CC1)CN(CC1CC1)CC21CCNC1=O.O=C(O)C(F)(F)F (stereo unspecified),-,-,-1.061,-,-
CC(C)(C)c1ccc(C2(C(=O)NCCS(C)(=O)=O)CC2)cc1,1.583,2.969,-0.9831,6.013,-16.56
O=C(O)C(F)(F)F.O=C(O)C(F)(F)F.[H][C@@]12OCCN(Cc3ccc(F)cc3)[C@@]1([H])CC[C@H]2OCc1ccncc1,-,-,-28.72,-,-
Cc1cc2nc(C(C)C)cc(N3CCC(O)CC3)n2n1,1.332,0.8273,15.77,3.11,-4.083
Cc1nnc(NC(=O)NCc2cc(F)cc(F)c2)s1,9.516,-2.107,2.197,-3.801,-2.746
COCCC(=O)N1CCOCC2(CCN(Cc3cccs3)C2)C1.O=C(O)C(F)(F)F (stereo unspecified),-,-,1.899,-,-
Cn1ccnc1C(=O)N1CCCC1c1ccc(C(=O)N2CCOCC2)s1 (stereo unspecified),1.869,4.157,0.3067,-3.314,-33.89
Cc1ccc(CNC(=O)N(C)Cc2cnn(C)c2)s1,-2.864,-0.1112,5.201,-0.387,-9.395
Cc1ccc(C(=O)N2CCC3(CC2)COCCN(S(C)(=O)=O)C3)cc1C,3.329,-0.2715,3.033,-2.553,-6.529
CC(C)C(=O)N1CC[C@H]2N(C)CC[C@@]2(C(=O)N2CCCC2)CC1,1.673,4.277,-,-11.19,-

2 of the entries, repeated:

structure	CoaBC	PfKRS1	Toxoplasma	MtTrpRS	Pks13 thioesterase
COCCC(=O)N1CCOCC2(CCN(Cc3cccs3)C2)C1.O=C(O)C(F)(F)F (stereo unspecified)	-	-	1.899	-	-
Cc1nc(CN(C)C2CCCN(c3ccccc3)C2)no1 (stereo unspecified)	1.419	0.04715	2.7	1.363	-7.189